Assay results as given in patent publication US20200129492A1, “TREATMENT OF CANCER WITH DIHYDROPYRIDINES” (MENRI GROUP LTD., priority 2017, published 2020).

Test system: NSCLC A549 lung cancer cells
Test: XTT assay, cell proliferation after 72 hours incubation, IC50
Format: cell-based
Details: Homo sapiens, A549, 72 h, read-out: Plus DMSO (Control), IC-50
Protocol: Example 10 (see also FIG. 10) is a study to determine the effect of the combination of calcium blockers on the proliferation of cancer cells. NSCLC A549 lung cancer cells were incubated with various concentrations of a combination of calcium blockers ranging from 1 μM to 50 μM. […] An XTT assay was then performed. The cell proliferation was then calculated. Results are representative of at least three independent experiments. IC50 was calculated from the % inhibition data.

Molecule `CN(C)C(=O)C(CCN1CCC(O)(c2ccc(Cl)cc2)CC1)(c1ccccc1)c1ccccc1` [Loperamide, 4-[4-(4-Chlorophenyl)-4-hydroxypiperidin-1-yl]-N,N-dimethyl-2,2-diphenylbutanamide] has an IC50 of 12.2 µM.
